Taken from: PubChem BioAssay AID504764 (Drosophila RNAi Screening Center, 2011)

Purpose: 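Knock-downs that raise or lower a Notch target reporter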 (primary screen)
System: Drosophila Kc167 cells
Reagents: long dsRNA against Drosophila genes
Duration: about 5 days (4 days dsRNA, then 24 h after transfection)
Treatment: transfection of constitutively active membrane-tethered Notch lacking the extracellular domain, read 24 h later
Read-out: 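Light from a Notch-responsive E(spl)m3 luciferase reporter under active Notch, with control-promoter and no-Notch reporter wells to normalise; raw counts from paired wells a and b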
Scale: induced reporter light, run 1, well a and induced reporter light, run 1, well b: higher = more light from the Notch target reporter with active Notch; control promoter light, run 1, well a and control promoter light, run 1, well b: higher = more light from the viral control promoter (cell number, transfection, viability); uninduced reporter light, run 1, well a: higher = more light from the Notch target reporter without active Notch
Hit rule: 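Wells with low control signal or poorly matching duplicates excluded; duplicates averaged; per source plate, z beyond ±2 for induced/control log2 ratio or beyond ±1.8 for induced/uninduced marks a hit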
Calls: active = modifier hit (raised or lowered Notch signal); inactive = not a hit
The screen tested about 22,000 reagents; this is an unselected part of those with a known target gene and a result. Over the whole deposit, 403 (1.9%) are marked active. 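Unnormalised raw counts per well; ratio z-scores behind the hit calls and whether each hit raises or lowers signal are not deposited.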 Names joined by + are all predicted targets of the reagent. Reagent sequences are not shown. Not given: the amount of reagent.

target gene	amplicon	induced reporter light, run 1, well a	induced reporter light, run 1, well b	control promoter light, run 1, well a	control promoter light, run 1, well b	uninduced reporter light, run 1, well a	outcome
SNCF	DRSC10115	1.66e5	1.49e5	1.81e5	1.57e5	7732	inactive
Vmat	DRSC06961	1.78e5	1.80e5	1.72e5	1.55e5	13545	inactive
Vmat	DRSC06962	91450	1.03e5	1.04e5	1.03e5	9010	inactive
Efhc1.2	DRSC06027	88985	97400	1.83e5	1.84e5	9735	inactive
Herp	DRSC02394	94515	1.05e5	94955	82235	6840	inactive
Ir94c	DRSC13539	69330	61215	1.03e5	78945	8330	inactive
Ptp69D	DRSC11258	1.72e5	1.34e5	3.06e5	1.93e5	8350	inactive
CtsL1	DRSC05462	1.44e5	1.36e5	2.67e5	2.66e5	15782	inactive
CtsL1	DRSC07363	1.41e5	1.50e5	1.36e5	1.21e5	13915	inactive
CG15514	DRSC15053	1.63e5	1.66e5	1.93e5	1.98e5	9810	inactive
lncRNA:sphinx + ATPsynF	DRSC17191	51005	66535	87840	79450	4615	inactive
CG6791	DRSC16118	1.53e5	1.65e5	1.63e5	1.28e5	12285	inactive
naz	DRSC14790	1.79e5	1.78e5	1.88e5	1.74e5	12155	inactive
naz	DRSC16199	1.53e5	1.61e5	1.65e5	1.55e5	10660	inactive
Pka-C1	DRSC03399	2.11e5	2.07e5	1.70e5	1.78e5	16605	inactive
Antdh	DRSC20307	1.24e5	1.55e5	2.80e5	2.58e5	8290	inactive
CG32040	DRSC08981	1.60e5	1.41e5	1.32e5	1.41e5	11645	inactive
Ids	DRSC08222	88790	1.16e5	1.65e5	1.57e5	7420	inactive
Oda	DRSC07626	94350	84190	1.24e5	1.20e5	8765	inactive
lbl	DRSC16986	1.47e5	1.41e5	1.57e5	1.47e5	9770	inactive
Actn	DRSC17724	1.64e5	1.94e5	2.27e5	2.38e5	13390	inactive
CG1637	DRSC18865	76315	76655	81810	70260	5060	inactive
CG1637	DRSC19748	1.84e5	1.29e5	2.19e5	2.07e5	11380	inactive
CG1637	DRSC19749	1.18e5	1.23e5	2.45e5	2.04e5	8610	inactive
CG30054	DRSC05354	1.65e5	1.53e5	2.43e5	3.10e5	17100	inactive
CG4198	DRSC18354	2.31e5	1.87e5	2.18e5	1.88e5	14590	inactive
Pkcdelta	DRSC19356	1.01e5	91855	1.23e5	98015	6030	inactive
Pkcdelta	DRSC19399	47495	47095	32425	41125	3220	active
RpL37-1	DRSC20149	1.01e5	93515	97495	1.24e5	13165	inactive
RpL37-1	DRSC21646						inactive
Gs1	DRSC00753	1.48e5	1.79e5	2.20e5	2.36e5	18482	inactive
CG10949	DRSC02112	2.68e5	3.22e5	3.18e5	3.19e5	21070	inactive
Klp98A	DRSC16724	1.68e5	1.68e5	2.69e5	2.17e5	14595	inactive
Klp98A	DRSC21834						inactive
CG14050	DRSC18594	1.49e5	1.20e5	2.17e5	1.81e5	8180	inactive
Hil	DRSC05989	62905	79640	1.08e5	94035	5560	inactive
Hil	DRSC06395	1.47e5	1.40e5	2.33e5	2.73e5	8595	inactive
Lcp2	DRSC07456	1.45e5	1.56e5	1.93e5	1.96e5	14555	inactive
Gpdh1	DRSC03336	1.60e5	1.94e5	1.71e5	1.98e5	14885	inactive
CG11089 + CG31381	DRSC13690	2.00e5	1.78e5	1.92e5	1.77e5	17990	inactive
CG11089 + CG31381	DRSC14290	1.95e5	1.86e5	2.21e5	2.42e5	14505	inactive
CG5880	DRSC15906	1.83e5	2.07e5	2.79e5	2.82e5	13220	inactive
Cerk	DRSC12285	1.45e5	1.27e5	88470	84150	9378	inactive
Act79B	DRSC11604	1.54e5	1.10e5	1.23e5	1.25e5	12010	inactive
CG11911	DRSC00331	1.76e5	2.25e5	1.87e5	2.43e5	17420	inactive
yuri	DRSC01453	76555	63395	88155	75735	8025	inactive
yuri	DRSC01454	26795	27310	27450	31345	5010	inactive
yuri	DRSC01943	1.16e5	1.24e5	1.53e5	1.66e5	10340	inactive
yuri	DRSC01972	1.75e5	1.74e5	1.55e5	1.57e5	15595	inactive
wwk	DRSC01941	1.56e5	1.73e5	1.73e5	1.74e5	17860	inactive
MetRS-m	DRSC16443	1.46e5	1.22e5	1.04e5	91255	11240	inactive
MetRS-m	DRSC16515	2.75e5	2.74e5	2.98e5	3.15e5	21755	inactive
Tsp42Eg	DRSC06112	1.83e5	1.98e5	2.19e5	1.90e5	16585	active
CAH16	DRSC15371	1.21e5	1.05e5	1.87e5	1.78e5	10140	inactive
fs(1)Ya	DRSC18776	59755	71405	62070	65380	9330	inactive
TTLL3B	DRSC02133	1.49e5	1.42e5	1.63e5	1.41e5	9095	inactive
Prosbeta4R1	DRSC00502	1.20e5	1.32e5	88625	64750	9175	inactive
CG8072	DRSC10960	2.17e5	1.71e5	3.26e5	2.78e5	11265	inactive
Vha100-2	DRSC14152	2.08e5	2.06e5	2.34e5	2.52e5	18820	inactive
CG10366	DRSC02046	2.38e5	2.00e5	1.91e5	2.17e5	15590	inactive
CG12766	DRSC08295	1.07e5	1.07e5	1.80e5	1.35e5	6365	inactive
CG12069	DRSC14470	1.42e5	1.42e5	1.68e5	1.78e5	11850	inactive
dany	DRSC04141	30400	41435	34170	27745	2345	inactive
CG9467	DRSC16498	1.31e5	1.54e5	98525	87940	9850	inactive
